{"source": "paper PMC12040169", "about": "(PLOS Biology, 2025)", "note": "The other results are listed elsewhere or left out."}
{"system": "T1, CTL2-GFP (C. trachomatis L2/434/Bu, GFP-expressing)", "T1 construct": "L2/434/Bu, GFP-expressing", "design": "species or system HeLa; Intracellular C. trachomatis growth in HeLa cells, bulk GFP fluorescence relative to DMSO", "settings": "bulk GFP, single well; 28.5 h, 10 µM; inhibitor", "units": {"% of control remaining": "%"}}
{"smiles": "Cc1cc(Br)cc(C)c1OCCNCCN(C)C", "note": "[CBK267808G]", "% of control remaining": 86.0766}
{"smiles": "O=C(c1ccc2ncccc2c1)N1CCc2ccccc21", "note": "[CBK200403]", "% of control remaining": 157.781}
{"smiles": "CCC(CC)C(=O)N1CCC(CNc2cnc(-c3ccc(S(C)(=O)=O)cc3)cn2)CC1", "note": "[CBK172021]", "% of control remaining": 74.9921}
{"smiles": "FC(F)(F)c1nc2ccccc2nc1SCCc1ccccc1", "note": "[CBK107204]", "% of control remaining": 100}
{"smiles": "O=C1CC(NCc2ccc3c(c2)OCO3)C(=O)N1c1ccc(OC(F)(F)Cl)cc1", "note": "(stereo not drawn) [CBK074357]", "% of control remaining": 103.811}
{"smiles": "O=C(C1CC1)N1CCCC(c2nc(-c3cccs3)no2)C1", "note": "(stereo not drawn) [CBK281944]", "% of control remaining": 147.778}
{"smiles": "Cc1nnnn1-c1ccc(CC(=O)N2CCc3sccc3C2c2ccccc2)cc1", "note": "(stereo not drawn) [CBK285567]", "% of control remaining": 117.519}
{"smiles": "COc1ccccc1-c1nn2c(Cn3cnc4ccccc43)nnc2s1", "note": "[CBK268218]", "% of control remaining": 126.923}
{"smiles": "COCCn1cc(C(=O)N2CCN3CCCCC3C2)c2ccccc21", "note": "(stereo not drawn) [CBK305287]", "% of control remaining": 126.714}
{"smiles": "COCCN(CCOC)C(=O)Nc1ccc(F)c(NC(C)=O)c1", "note": "[CBK307705]", "% of control remaining": 120.509}
{"smiles": "C[C@@H](Cn1c(C(F)(F)F)cc2cccnc21)NC(=O)C1CCC1", "note": "[CBK283230]", "% of control remaining": 129.395}
{"smiles": "COc1ccc(-c2nc(-c3ccoc3)cnc2N)cc1OC", "note": "[CBK063964]", "% of control remaining": 191.34}
{"smiles": "Cc1occc1-c1nnc(SCC(=O)Nc2cccc3nsnc23)o1", "note": "[CBK268979]", "% of control remaining": 125.333}
{"smiles": "COc1ccccc1-c1nc(C2CCCN2C(=O)N[C@@H](C)c2ccccc2)n2ccccc12", "note": "(stereo partly drawn) [CBK046625]", "% of control remaining": 93.504}
{"smiles": "CN1CCN(c2ccc(NC(=O)c3cccc(Br)c3)cc2)CC1", "note": "[CBK266140]", "% of control remaining": 142.115}
{"smiles": "CCn1c(SCC(=O)N2c3ccccc3Sc3ccccc32)nnc1C(C)Oc1ccccc1", "note": "(stereo not drawn) [CBK266290]", "% of control remaining": 191.191}
{"smiles": "CSc1nc2ccc(NS(=O)(=O)c3ccc(Cl)c(C(=O)O)c3)cc2s1", "note": "[CBK297541]", "% of control remaining": 143.631}
{"smiles": "S=C(NCc1cccs1)NC1CC1", "note": "[CBK008520]", "% of control remaining": 135.401}
{"smiles": "Cc1ccc2[nH]c3c(c2c1)CCNCC3", "note": "[CBK004811]", "% of control remaining": 114.694}
{"smiles": "COC(=O)c1cccn2cc(CN3CCSC(C)C3)nc12", "note": "(stereo not drawn) [CBK304958]", "% of control remaining": 108.283}
{"smiles": "CSCCC(NS(=O)(=O)c1ccc(I)cc1)C(=O)O", "note": "(stereo not drawn) [CBK268768]", "% of control remaining": 174.927}
{"smiles": "CN1CCN(C(=O)c2ccc(-c3ccccc3)nc2N(C)C)CC1", "note": "[CBK106115]", "% of control remaining": 100}
{"smiles": "Cc1ccc(CN(CCCn2ccnc2)Cc2cccnc2)o1", "note": "[CBK283100]", "% of control remaining": 136.6}
{"smiles": "O=C(O)C(CCO)Sc1nnc(Nc2ccc(Oc3ccccc3)cc2)s1", "note": "(stereo not drawn) [CBK296631]", "% of control remaining": 150.881}
{"smiles": "O=[N+]([O-])c1ccc(-c2ccc(/C=C/c3cc(O)c4ccccc4n3)o2)cc1", "note": "[CBK267792]", "% of control remaining": 104.377}
{"smiles": "CC(C)(C)c1ccc(S(=O)(=O)N2CCCC[C@H]2CCOC(=O)/C=C\\C(=O)O)cc1", "note": "[CBK200069]", "% of control remaining": 106.941}
{"smiles": "CCc1nn(CC(=O)NC2CCCC2)c(=O)c2cc3ccsc3n12", "note": "[CBK284134]", "% of control remaining": 125.274}
{"smiles": "Cc1cccc(Nc2ccc(C3CCCCN3Cc3ccc4nccnc4c3)cn2)n1", "note": "(stereo not drawn) [CBK285536]", "% of control remaining": 109.541}
{"smiles": "CC(C)N(C)C1CCN(S(=O)(=O)c2cccc([N+](=O)[O-])c2)CC1", "note": "[CBK294462]", "% of control remaining": 140.86}
{"smiles": "O=C(O)c1cccc(S(=O)(=O)Nc2nc3ccccc3s2)c1", "note": "[CBK161138]", "% of control remaining": 91.9554}
{"smiles": "CNC(=S)N(Cc1ccc(S(N)(=O)=O)cc1)C1CC(=O)N(c2ccc(OC)cc2)C1=O", "note": "(stereo not drawn) [CBK262940]", "% of control remaining": 101.268}
{"smiles": "Cc1oc(C(C)(C)C)cc1C(=O)Nc1ccc(C(F)(F)F)cc1", "note": "[CBK057251]", "% of control remaining": 127.24}
{"smiles": "CC(=O)N1CCCN(Cc2c(C(C)C)[nH]c3ncccc23)CC1", "note": "[CBK285333]", "% of control remaining": 123.324}
{"smiles": "CC(C)(CNC(=O)Cn1cc(C(=O)Nc2ccc(F)cc2)ccc1=O)c1cccc(F)c1", "note": "[CBK286079]", "% of control remaining": 117.131}
{"smiles": "NS(=O)(=O)c1ccc(CNC(=O)c2cc(-c3cccc(Cl)c3)nc3ccccc23)cc1", "note": "[CBK267774]", "% of control remaining": 136.795}
{"smiles": "CN(Cc1ccccc1)Cc1nc2c([nH]1)c(=O)[nH]c(=O)n2C", "note": "[CBK269442]", "% of control remaining": 81.0223}
{"smiles": "O=C(NCCN1CCOCC1)c1cc(-c2ccc(Cl)cc2)nc2ccccc12", "note": "[CBK262650]", "% of control remaining": 113.781}
{"smiles": "COC(=O)c1c(NC(=S)Nc2cn(C)nc2C(N)=O)sc2c1CCCCC2", "note": "[CBK266849]", "% of control remaining": 119.703}
{"smiles": "CS(=O)(=O)NC1CCCN(c2ncnc3ccccc23)C1", "note": "(stereo not drawn) [CBK305619]", "% of control remaining": 100.461}
{"smiles": "CN1CCN(CC(=O)Nc2ccc(Cl)cc2C(=O)c2ccccc2)CC1", "note": "[CBK266246]", "% of control remaining": 140.43}
{"smiles": "Cc1c(C(=O)NCCCCn2ccnc2)[nH]c2ccccc12", "note": "[CBK283246]", "% of control remaining": 107.216}
{"smiles": "CCN1CCOC(CNc2nc(-c3ccncc3)nc3c2CCC3)C1", "note": "(stereo not drawn) [CBK306215]", "% of control remaining": 86.3228}
{"smiles": "Cc1nonc1NC(=O)CN1CCCC1", "note": "[CBK261840]", "% of control remaining": 109.329}
{"smiles": "CC(C)(C)c1cc(C(=O)Nc2ccncc2)n(Cc2ccc(Cl)cc2Cl)n1", "note": "[CBK107284]", "% of control remaining": 26.5354}
{"smiles": "Cc1ccc(Cl)c(NC(=O)NCCN2CCN(c3ccccc3[N+](=O)[O-])CC2)c1", "note": "[CBK267293]", "% of control remaining": 133.194}
{"smiles": "CCOC(=O)CN1CCN(c2nccnc2OCCN2CCOCC2)CC1", "note": "[CBK082897]", "% of control remaining": 103.416}
{"smiles": "c1ccc2c(c1)OCC(c1nn3c(-c4ccncc4)nnc3s1)O2", "note": "(stereo not drawn) [CBK288560]", "% of control remaining": 114.739}
{"smiles": "CC(=O)c1ccc(-c2ccc(C(=O)N3CCN(C)CC3)c(N3CCOCC3)n2)s1", "note": "[CBK106181]", "% of control remaining": 154.189}
{"smiles": "COCc1cn(C[C@H]2CC3CCN2C[C@@H]3C(=O)NC(C)C)nn1", "note": "(stereo partly drawn) [CBK288733]", "% of control remaining": 126.127}
{"smiles": "COc1ccnc(N2CCN(C(=O)c3ccc(C)n3C)CC2)n1", "note": "[CBK305803]", "% of control remaining": 131.637}
{"smiles": "c1ncn(C2CCCCC2)c1C1CCCCC1", "note": "[CBK016758]", "% of control remaining": 112.633}
{"smiles": "O=C(c1nccc2ccccc12)N1CCc2ccccc21", "note": "[CBK200405]", "% of control remaining": 72.545}
{"smiles": "CC(C)(C)NC(=O)C1C2CCC3(CC(=O)c4ccccc4O3)C21", "note": "(stereo not drawn) [CBK284821]", "% of control remaining": 147.976}
{"smiles": "CCOc1cccc2cc(C(=O)N3CCN(Cc4ccccc4)CC3)c(=O)oc12", "note": "[CBK270259C]", "% of control remaining": 146.391}
{"smiles": "COc1cc(CN2CCN(c3ccccn3)CC2)cc(Br)c1O", "note": "[CBK025770]", "% of control remaining": 137.786}
{"smiles": "COc1ccccc1C1C(C(=O)c2sc(C)nc2C)=C(O)C(=O)N1CCCN1CCOCC1", "note": "(stereo not drawn) [CBK266592]", "% of control remaining": 116.393}
{"smiles": "Cc1ccc(S(=O)(=O)Nc2cccc3ccccc23)c([N+](=O)[O-])c1", "note": "[CBK267381]", "% of control remaining": 145.679}
{"smiles": "c1ccc(CN2CCN(Cc3c[nH]c(-c4ccccc4)n3)CC2)cc1", "note": "[CBK074775]", "% of control remaining": 106.687}
{"smiles": "O=C(O)/C=C/c1cccc(NS(=O)(=O)c2ccc(C(=O)O)cc2)c1", "note": "[CBK262262]", "% of control remaining": 100}
{"smiles": "CSc1ccc(-n2ncc(-c3ccc(F)cc3F)n2)cc1", "note": "[CBK112728]", "% of control remaining": 125.777}
{"smiles": "COc1cccc(NC(=O)Cn2cc(OC)c(=O)cc2CN2CCOCC2)c1", "note": "[CBK294430]", "% of control remaining": 154.679}
{"smiles": "COc1cccc2c1cc(C(=O)NCc1cc(C3CC3)[nH]n1)n2C", "note": "[CBK283282]", "% of control remaining": 152.463}
{"smiles": "CCOC(=O)N1CCN(c2cc3[nH]c(=S)[nH]c3cc2F)CC1", "note": "[CBK288444]", "% of control remaining": 126.89}
{"smiles": "CCNc1nccnc1-c1cccc(O)c1", "note": "[CBK088593]", "% of control remaining": 161.651}
{"smiles": "Cc1ccc(SCCNC(=O)COc2ccc(Cl)cc2Cl)cc1", "note": "[CBK263976]", "% of control remaining": 100}
{"smiles": "O=c1c2ccccc2n2c(=O)[nH]nc2n1-c1ccccc1", "note": "[CBK288352]", "% of control remaining": 99.8629}
{"smiles": "Cc1cc(C(=O)CSc2ccc(Cl)nn2)c(C)n1C1CC1", "note": "[CBK305512]", "% of control remaining": 147.861}
{"smiles": "CC(C)NC(=O)Nc1ccc(C(=O)N(CCC#N)Cc2ccco2)cc1", "note": "[CBK305999]", "% of control remaining": 129.503}
{"smiles": "Cc1nn(CC(=O)NCc2ccc(C(=O)O)cc2)c(C)c1[N+](=O)[O-]", "note": "[CBK268967]", "% of control remaining": 92.7429}
{"smiles": "Cn1nnnc1Sc1cc(=O)n(C)c(=O)n1C", "note": "[CBK011072]", "% of control remaining": 72.1019}
{"smiles": "Cn1cc(CC(=O)Nc2nc3c(cc2C#N)CCCC3)cn1", "note": "[CBK306436]", "% of control remaining": 106.811}
{"smiles": "COc1ccc(Cl)cc1Nc1ncnc(N)n1", "note": "[CBK288195]", "% of control remaining": 178.505}
{"smiles": "CC(=O)N1CCC(C(=O)NC(=O)NCCc2ccccc2)CC1", "note": "[CBK034851]", "% of control remaining": 100}
{"smiles": "Cc1ccc(-c2ncc(OCc3cccs3)nc2N)cc1C", "note": "[CBK145146]", "% of control remaining": 98.4302}
{"smiles": "CN1CCCN(CC(CC(=O)NCc2ccccc2)C(=O)O)CC1", "note": "(stereo not drawn) [CBK286791]", "% of control remaining": 139.358}
{"smiles": "CCc1cc(Br)ccc1S(=O)(=O)NC1CCOC1=O", "note": "(stereo not drawn) [CBK044385]", "% of control remaining": 98.1873}
{"smiles": "COc1ccc(-c2cncc(N(C)CCN(C)C)n2)cc1", "note": "[CBK037832]", "% of control remaining": 123.97}
{"smiles": "CS(=O)(=O)NC1CCN(CCc2ccc(F)c(F)c2)C1", "note": "(stereo not drawn) [CBK305078]", "% of control remaining": 132.401}
{"smiles": "Cc1c(Cl)cccc1S(=O)(=O)Nc1nc(-c2cccc([N+](=O)[O-])c2)cs1", "note": "[CBK000994]", "% of control remaining": 136.141}
{"smiles": "CCCn1c(C)cc2cc(NC(=O)C(C)n3ccnc3)ccc21", "note": "(stereo not drawn) [CBK281547]", "% of control remaining": 114.114}
{"smiles": "COc1ccc(CCNC(=O)N(CCC#N)C2CCCCC2)cc1", "note": "[CBK156375]", "% of control remaining": 95.9259}
